PubChem BioAssay AID1224828 – NIAID, 2016
Here is a random part of about 17,000 deposited reagents. 762 of all reagents (4.5%) were called active. 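Active calls include both raised and lowered p65 entry, mostly lowered; wells with fewer than 50 cells lack a z-score.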 Raw values are not corrected between plates. Reagents against one gene are numbered here.

Aim: 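Find genes required for NF-kappaB p65 moving into the nucleus after LPS in mouse macrophages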 (primary screen)
Cell system: mouse RAW264.7 G9 macrophage reporter cells (GFP-p65, Tnf promoter-mCherry)
Knock-down reagent: siRNA pool against mouse genes, 100 nM
Time to read-out: 2 days siRNA transfection, then 40 min LPS before fixation
Challenge: LPS (Salmonella minnesota R595) at 10 ng/ml
Detection: 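Microscopy ratio of nuclear to perinuclear-ring GFP-p65 signal, scaled to the plate median; gene score is the average of two replicate robust z-scores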
Direction: p65 translocation robust z-score: higher = more nuclear NF-kappaB p65 after LPS than the plate median; nuclear/cytoplasmic p65 ratio: higher = more nuclear NF-kappaB p65
Hit rule: 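Called active when z exceeds 3.3 or falls under -1.56 (median of Tlr4 controls), giving activity score of at least 50; no calls for control wells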
Calls: active = hit (p65 shift raised or lowered); inactive = no clear change

target | reagent no. | p65 translocation robust z-score | nuclear/cytoplasmic p65 ratio, rep 1 | nuclear/cytoplasmic p65 ratio, rep 2 | low cell count flag | Call
Msantd1 (Myb/SANT-like DNA-binding domain containing 1) | 1 | -1.72 | 1.28 | 1.29 | enough cells to score | active
Kcnh2 | 1 | 1.9 | 1.71 | 1.65 | enough cells to score | inactive
Rnf19a (ring finger protein 19A) | 1 | 0.58 | 1.49 | 1.29 | enough cells to score | inactive
Sftpc (surfactant associated protein C) | 1 | 0.04 | 1.52 | 1.6 | enough cells to score | inactive
Plek2 (pleckstrin 2) | 1 | -0.25 | 1.51 | 1.33 | enough cells to score | inactive
Tbcb (tubulin folding cofactor B) | 1 | -0.95 | 1.5 | 1.57 | enough cells to score | inactive
Eps8l3 (EPS8-like 3) | 1 | -0.25 | 1.49 | 1.49 | enough cells to score | inactive
Adh1 (alcohol dehydrogenase 1 (class I)) | 1 | -0.39 | 1.52 | 1.6 | enough cells to score | inactive
Atg14 (autophagy related 14) | 1 | -0.82 | 1.47 | 1.63 | enough cells to score | inactive
Gfpt1 (glutamine fructose-6-phosphate transaminase 1) | 1 | -0.41 | 1.47 | 1.46 | enough cells to score | inactive
Zfp112 (zinc finger protein 112) | 1 | – | 1.02 | 0.912 | fewer than 50 cells per well; well left out of scoring | inactive
Egln3 (egl-9 family hypoxia-inducible factor 3) | 1 | 0.35 | 1.58 | 1.35 | enough cells to score | inactive
Shfl (shiftless antiviral inhibitor of ribosomal frameshifting) | 1 | 1.85 | 1.21 | 1.79 | enough cells to score | inactive
Pgap6 (post-glycosylphosphatidylinositol attachment to proteins 6) | 1 | – | 1.41 | 1.3 | fewer than 50 cells per well; well left out of scoring | inactive
Sys1 | 1 | 0 | 1.45 | 1.41 | enough cells to score | inactive
Mcrip2 (MAPK regulated corepressor interacting protein 2) | 1 | -0.76 | 1.31 | 1.44 | enough cells to score | inactive
Rnf138rt1 (ring finger protein 138, retrogene 1) | 1 | – | 1.41 | 1.37 | fewer than 50 cells per well; well left out of scoring | inactive
Fyco1 (FYVE and coiled-coil domain containing 1) | 1 | -0.03 | 1.58 | 1.47 | enough cells to score | inactive
Mapkapk2 (MAP kinase-activated protein kinase 2) | 1 | -0.77 | 1.67 | 1.28 | enough cells to score | inactive
Cfap61 (cilia and flagella associated protein 61) | 1 | 0.6 | 1.34 | 1.37 | enough cells to score | inactive
Or52u1 (olfactory receptor family 52 subfamily U member 1) | 1 | -1.23 | 1.27 | 1.13 | enough cells to score | inactive
Wnk2 (WNK lysine deficient protein kinase 2) | 1 | -0.34 | 1.57 | 1.39 | enough cells to score | inactive
Tomm7 (translocase of outer mitochondrial membrane 7) | 1 | – | 1.11 | 0.948 | fewer than 50 cells per well; well left out of scoring | inactive
Aoc1l3 (amine oxidase copper containing 1-like 3) | 1 | 1.61 | 1.67 | 1.38 | enough cells to score | inactive
Slc9a6 | 1 | – | 1.55 | 1.41 | fewer than 50 cells per well; well left out of scoring | inactive
Samhd1 (SAM domain and HD domain, 1) | 1 | – | 1.51 | 1.22 | fewer than 50 cells per well; well left out of scoring | inactive
Wdr5 (WD repeat domain 5) | 1 | -1.45 | 1.31 | 1.39 | enough cells to score | inactive
Pcnx2 (pecanex homolog 2) | 1 | – | 1.16 | 1.28 | fewer than 50 cells per well; well left out of scoring | inactive
Pcnx2 (pecanex homolog 2) | 2 | -2.01 | 1.18 | 1.39 | enough cells to score | active
Icam1 (intercellular adhesion molecule 1) | 1 | -0.63 | 1.3 | 1.34 | enough cells to score | inactive
Thap7 (THAP domain containing 7) | 1 | 1.04 | 1.51 | 1.29 | enough cells to score | inactive
Ehd2 (EH-domain containing 2) | 1 | – | 1.37 | 1.26 | fewer than 50 cells per well; well left out of scoring | inactive
Slamf7 (SLAM family member 7) | 1 | -0.15 | 1.38 | 1.25 | enough cells to score | inactive
Snrpd3 (small nuclear ribonucleoprotein D3) | 1 | – | 1.17 | 1.48 | fewer than 50 cells per well; well left out of scoring | inactive
Trafd1 (TRAF type zinc finger domain containing 1) | 1 | – | 1.29 | 1.68 | fewer than 50 cells per well; well left out of scoring | inactive
Or7a40 (olfactory receptor family 7 subfamily A member 40) | 1 | -0.01 | 1.54 | 1.56 | enough cells to score | inactive
Tmem184c (transmembrane protein 184C) | 1 | 0.23 | 1.57 | 1.93 | enough cells to score | inactive
Alg5 (ALG5 dolichyl-phosphate beta-glucosyltransferase) | 1 | -0.04 | 1.54 | 1.74 | enough cells to score | inactive
Smpd2 (sphingomyelin phosphodiesterase 2, neutral) | 1 | – | 1.46 | 1.29 | fewer than 50 cells per well; well left out of scoring | inactive
Slc7a3 | 1 | 0.25 | 1.43 | 1.28 | enough cells to score | inactive

Entries listed so far called active (2):
target | reagent no. | p65 translocation robust z-score | nuclear/cytoplasmic p65 ratio, rep 1 | nuclear/cytoplasmic p65 ratio, rep 2 | low cell count flag | Call
Msantd1 (Myb/SANT-like DNA-binding domain containing 1) | 1 | -1.72 | 1.28 | 1.29 | enough cells to score | active
Pcnx2 (pecanex homolog 2) | 2 | -2.01 | 1.18 | 1.39 | enough cells to score | active

More records:
target | reagent no. | p65 translocation robust z-score | nuclear/cytoplasmic p65 ratio, rep 1 | nuclear/cytoplasmic p65 ratio, rep 2 | low cell count flag | Call
Gtf3c4 (general transcription factor IIIC, polypeptide 4) | 1 | 1.27 | 1.59 | 1.55 | enough cells to score | inactive
Bcl2l11 (BCL2 like 11) | 1 | 0.23 | 1.58 | 1.72 | enough cells to score | inactive
Gpr68 (G protein-coupled receptor 68) | 1 | -0.27 | 1.51 | 1.5 | enough cells to score | inactive
Or51l14 (olfactory receptor family 51 subfamily L member 14) | 1 | – | 1.72 | 1.31 | fewer than 50 cells per well; well left out of scoring | inactive
Txndc8 (thioredoxin domain containing 8) | 1 | – | 1.36 | 2.1 | fewer than 50 cells per well; well left out of scoring | inactive
Rho (rhodopsin) | 1 | -0.2 | 1.52 | 1.52 | enough cells to score | inactive
Eif2ak1 (eukaryotic translation initiation factor 2 alpha kinase 1) | 1 | -0.87 | 1.52 | 1.3 | enough cells to score | inactive
Tcf23 (transcription factor 23) | 1 | – | 1.26 | 1.08 | fewer than 50 cells per well; well left out of scoring | inactive
Plch1 (phospholipase C, eta 1) | 1 | 1.45 | 1.91 | 1.79 | enough cells to score | inactive
Prodh (proline dehydrogenase) | 1 | 2.34 | 1.87 | 1.67 | enough cells to score | inactive
Rpusd1 (RNA pseudouridylate synthase domain containing 1) | 1 | – | 2.06 | 1.58 | fewer than 50 cells per well; well left out of scoring | inactive
Kyat1 (kynurenine aminotransferase 1) | 1 | -1.15 | 1.44 | 1.58 | enough cells to score | inactive
Or6k14 (olfactory receptor family 6 subfamily K member 14) | 1 | 1.13 | 1.65 | 1.35 | enough cells to score | inactive
Or7g31 (olfactory receptor family 7 subfamily G member 31) | 1 | -0.78 | 1.34 | 1.27 | enough cells to score | inactive
Onecut2 (one cut domain, family member 2) | 1 | -1.57 | 1.23 | 1.21 | enough cells to score | active
Sppl3 (signal peptide peptidase 3) | 1 | – | 1.12 | 1.07 | fewer than 50 cells per well; well left out of scoring | inactive
Npffr1 (neuropeptide FF receptor 1) | 1 | 0.3 | 1.51 | 1.66 | enough cells to score | inactive
Tmed11 (transmembrane p24 trafficking protein 11) | 1 | -0.39 | 1.34 | 1.51 | enough cells to score | inactive
Or1j15 (olfactory receptor family 1 subfamily J member 15) | 1 | – | 1.4 | 1.1 | fewer than 50 cells per well; well left out of scoring | inactive
Trim16 (tripartite motif-containing 16) | 1 | -0.98 | 1.25 | 1.08 | enough cells to score | inactive
Defb4 (defensin beta 4) | 1 | 0.23 | 1.56 | 1.63 | enough cells to score | inactive
Fut4 (fucosyltransferase 4) | 1 | 0.59 | 1.69 | 1.53 | enough cells to score | inactive
Ubap2 (ubiquitin-associated protein 2) | 1 | -1.85 | 1.41 | 1.1 | enough cells to score | active
Cntn3 (contactin 3) | 1 | -0.54 | 1.5 | 1.71 | enough cells to score | inactive
Bkgd (beta-keto-L-gulonate decarboxylase) | 1 | 0.49 | 1.32 | 1.27 | enough cells to score | inactive
Kifap3 (kinesin-associated protein 3) | 1 | -0.77 | 1.38 | 1.28 | enough cells to score | inactive
Itgb2l (integrin beta 2-like) | 1 | 1.24 | 1.74 | 1.59 | enough cells to score | inactive
Mvp (major vault protein) | 1 | -0.37 | 1.69 | 1.56 | enough cells to score | inactive
Zfp1 (zinc finger protein 1) | 1 | -0.12 | 1.43 | 1.21 | enough cells to score | inactive
Oser1 (oxidative stress responsive serine rich 1) | 1 | -0.29 | 1.31 | 1.22 | enough cells to score | inactive
Aars1 (alanyl-tRNA synthetase 1) | 1 | 1.1 | 1.47 | 1.73 | enough cells to score | inactive
Narf (nuclear prelamin A recognition factor) | 1 | -0.3 | 1.27 | 1.2 | enough cells to score | inactive
Pnp (purine-nucleoside phosphorylase) | 1 | 0.23 | 1.56 | 1.41 | enough cells to score | inactive
Adgrg3 (adhesion G protein-coupled receptor G3) | 1 | 0.66 | 1.58 | 1.7 | enough cells to score | inactive
Mapk7 (mitogen-activated protein kinase 7) | 1 | 1.97 | 1.92 | 1.62 | enough cells to score | inactive
